Laboratory results: the M2OR odorant receptor database
Where a chain is given by its changes, count along the chain named. Only a part is listed here, and it is no random draw. The calls were merged from several studies; some rest on single wells. The list shows a part of the results.

Chains of the proteins cited; added tags and fusions are not shown. A line that says so, or that is headed by a name, gives the form on record, which may keep a tag or linker.
UniProt Q7TRA2, as listed by the source: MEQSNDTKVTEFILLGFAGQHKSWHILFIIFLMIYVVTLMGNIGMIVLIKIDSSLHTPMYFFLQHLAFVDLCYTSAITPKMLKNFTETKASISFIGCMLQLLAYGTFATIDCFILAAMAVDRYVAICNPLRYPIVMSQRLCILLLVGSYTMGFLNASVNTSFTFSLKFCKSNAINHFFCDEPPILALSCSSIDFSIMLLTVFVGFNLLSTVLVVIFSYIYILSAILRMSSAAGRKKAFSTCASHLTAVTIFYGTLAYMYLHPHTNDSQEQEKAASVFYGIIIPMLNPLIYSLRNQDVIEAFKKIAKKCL
UniProt E9QAT7, as listed by the source: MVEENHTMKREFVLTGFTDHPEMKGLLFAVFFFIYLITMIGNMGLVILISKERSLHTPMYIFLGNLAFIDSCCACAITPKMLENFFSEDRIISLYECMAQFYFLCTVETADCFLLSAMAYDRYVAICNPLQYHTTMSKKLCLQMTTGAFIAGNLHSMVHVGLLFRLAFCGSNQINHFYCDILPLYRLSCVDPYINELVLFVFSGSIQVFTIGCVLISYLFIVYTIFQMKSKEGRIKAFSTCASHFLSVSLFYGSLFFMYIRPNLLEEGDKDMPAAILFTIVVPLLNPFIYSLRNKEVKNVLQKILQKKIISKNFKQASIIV
UniProt L7N0P5, as listed by the source: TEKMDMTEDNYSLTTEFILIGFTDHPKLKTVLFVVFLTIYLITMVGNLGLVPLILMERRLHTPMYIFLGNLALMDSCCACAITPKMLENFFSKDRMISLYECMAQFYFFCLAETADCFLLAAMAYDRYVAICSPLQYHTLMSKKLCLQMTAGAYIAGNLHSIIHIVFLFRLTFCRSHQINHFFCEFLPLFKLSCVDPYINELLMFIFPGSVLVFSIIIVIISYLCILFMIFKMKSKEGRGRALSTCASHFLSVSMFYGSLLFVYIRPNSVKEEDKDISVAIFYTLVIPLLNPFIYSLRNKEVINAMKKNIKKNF

Legend:
Details in all cases: stereoisomer not certain
[1] = target: T1, UniProt E9Q6Z7
T1 sequence (whole entry): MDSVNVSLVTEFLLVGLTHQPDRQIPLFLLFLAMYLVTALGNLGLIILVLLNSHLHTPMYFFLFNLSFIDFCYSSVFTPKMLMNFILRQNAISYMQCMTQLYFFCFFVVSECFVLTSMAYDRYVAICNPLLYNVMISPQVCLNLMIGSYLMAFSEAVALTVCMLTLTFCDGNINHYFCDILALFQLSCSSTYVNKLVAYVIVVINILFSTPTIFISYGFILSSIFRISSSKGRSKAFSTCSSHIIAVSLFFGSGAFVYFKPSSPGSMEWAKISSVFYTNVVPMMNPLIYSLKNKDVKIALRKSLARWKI
Summary of the method: (§1)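 Values were gathered from published papers (main text and supplementary material), with extra details requested from the original authors when needed, and checked for typos and inconsistencies. Each receptor–molecule pair is called responsive (active) if the original authors judged the measured signal statistically different from baseline, and non-responsive (inactive) otherwise. Assay methods varied by source, often transient mammalian cell-line luciferase assays. Recorded details include cell line, G-protein, co-transfected protein and tags.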

[2] = target: T2, UniProt L7MU75
T2 sequence (whole entry): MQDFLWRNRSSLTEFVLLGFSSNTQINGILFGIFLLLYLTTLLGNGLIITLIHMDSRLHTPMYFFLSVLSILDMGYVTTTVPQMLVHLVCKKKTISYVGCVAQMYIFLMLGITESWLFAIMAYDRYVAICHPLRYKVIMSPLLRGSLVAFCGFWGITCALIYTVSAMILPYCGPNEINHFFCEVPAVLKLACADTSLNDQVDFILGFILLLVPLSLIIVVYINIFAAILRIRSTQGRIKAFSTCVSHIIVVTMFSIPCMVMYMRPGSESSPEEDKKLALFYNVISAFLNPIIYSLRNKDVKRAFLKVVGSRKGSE
Summary of the method: as §1

[3] = target: T3, UniProt L7N210
T3 sequence (whole entry): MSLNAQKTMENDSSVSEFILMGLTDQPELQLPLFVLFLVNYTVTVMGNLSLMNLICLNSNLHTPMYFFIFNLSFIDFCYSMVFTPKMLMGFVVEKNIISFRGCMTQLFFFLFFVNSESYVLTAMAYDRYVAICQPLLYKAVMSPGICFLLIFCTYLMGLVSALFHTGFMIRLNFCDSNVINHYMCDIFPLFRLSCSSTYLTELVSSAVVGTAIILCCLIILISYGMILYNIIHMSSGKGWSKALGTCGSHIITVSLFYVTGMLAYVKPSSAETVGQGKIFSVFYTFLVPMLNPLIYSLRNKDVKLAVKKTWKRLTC
Summary of the method: as §1

[4] = target: T4, UniProt Q3KPB0
T4 sequence (whole entry): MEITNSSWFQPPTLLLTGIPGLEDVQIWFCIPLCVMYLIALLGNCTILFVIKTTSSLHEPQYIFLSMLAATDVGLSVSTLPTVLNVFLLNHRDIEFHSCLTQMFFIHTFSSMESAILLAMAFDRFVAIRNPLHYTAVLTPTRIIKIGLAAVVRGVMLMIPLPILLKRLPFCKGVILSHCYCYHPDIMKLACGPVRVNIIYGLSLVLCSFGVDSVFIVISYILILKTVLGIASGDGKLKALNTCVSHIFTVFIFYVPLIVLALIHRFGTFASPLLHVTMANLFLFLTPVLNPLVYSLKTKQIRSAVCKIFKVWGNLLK
Summary of the method: as §1

[5] = target: T5, UniProt Q3U0P3
T5 sequence (whole entry): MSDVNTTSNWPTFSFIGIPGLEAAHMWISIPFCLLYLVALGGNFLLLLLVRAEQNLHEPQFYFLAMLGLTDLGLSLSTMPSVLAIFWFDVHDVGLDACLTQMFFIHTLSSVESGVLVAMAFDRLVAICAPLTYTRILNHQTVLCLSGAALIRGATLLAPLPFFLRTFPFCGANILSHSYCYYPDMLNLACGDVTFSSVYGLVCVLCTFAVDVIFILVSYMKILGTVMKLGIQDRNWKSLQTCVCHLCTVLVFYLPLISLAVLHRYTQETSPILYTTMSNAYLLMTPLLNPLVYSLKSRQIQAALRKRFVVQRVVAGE
Summary of the method: as §1

[6] = target: T6, UniProt Q7TQU8
T6 sequence (whole entry): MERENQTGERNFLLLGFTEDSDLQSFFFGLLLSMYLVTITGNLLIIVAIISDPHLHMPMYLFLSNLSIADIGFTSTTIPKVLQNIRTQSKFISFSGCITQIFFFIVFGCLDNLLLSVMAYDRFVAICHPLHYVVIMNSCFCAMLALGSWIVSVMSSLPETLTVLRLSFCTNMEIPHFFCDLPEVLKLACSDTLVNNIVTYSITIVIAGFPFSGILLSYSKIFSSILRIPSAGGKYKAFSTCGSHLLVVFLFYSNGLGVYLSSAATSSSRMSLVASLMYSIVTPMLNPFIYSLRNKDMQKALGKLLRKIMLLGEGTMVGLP
Summary of the method: as §1

[7] = target: T7, UniProt Q7TR79
T7 sequence (whole entry): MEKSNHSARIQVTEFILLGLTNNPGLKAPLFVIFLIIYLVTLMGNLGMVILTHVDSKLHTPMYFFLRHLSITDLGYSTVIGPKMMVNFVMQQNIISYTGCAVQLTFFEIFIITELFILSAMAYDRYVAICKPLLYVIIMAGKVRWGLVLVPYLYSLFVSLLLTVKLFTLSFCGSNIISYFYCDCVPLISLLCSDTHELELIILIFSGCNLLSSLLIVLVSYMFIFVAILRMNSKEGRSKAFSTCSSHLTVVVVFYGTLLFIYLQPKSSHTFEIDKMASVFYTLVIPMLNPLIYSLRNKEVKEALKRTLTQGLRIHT
Summary of the method: as §1

[8] = target: T8, UniProt Q7TRA1
T8 sequence (whole entry): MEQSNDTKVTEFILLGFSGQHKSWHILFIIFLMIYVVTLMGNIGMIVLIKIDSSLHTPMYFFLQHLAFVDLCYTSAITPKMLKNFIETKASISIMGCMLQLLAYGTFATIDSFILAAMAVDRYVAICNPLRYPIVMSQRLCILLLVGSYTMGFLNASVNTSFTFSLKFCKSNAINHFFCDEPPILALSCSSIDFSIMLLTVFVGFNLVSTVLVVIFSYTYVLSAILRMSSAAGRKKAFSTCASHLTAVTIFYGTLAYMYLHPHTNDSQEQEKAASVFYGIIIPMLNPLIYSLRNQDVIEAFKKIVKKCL
Summary of the method: as §1

[9] = target: T9, UniProt Q7TRA2
T9 sequence (whole entry): T8 sequence (whole entry) with S18A, I86T, I94F, M95I, S112C, V208L, T219I, V221I, V305A
Summary of the method: as §1

[10] = target: T10, UniProt E9Q9Z6
T10 sequence (whole entry): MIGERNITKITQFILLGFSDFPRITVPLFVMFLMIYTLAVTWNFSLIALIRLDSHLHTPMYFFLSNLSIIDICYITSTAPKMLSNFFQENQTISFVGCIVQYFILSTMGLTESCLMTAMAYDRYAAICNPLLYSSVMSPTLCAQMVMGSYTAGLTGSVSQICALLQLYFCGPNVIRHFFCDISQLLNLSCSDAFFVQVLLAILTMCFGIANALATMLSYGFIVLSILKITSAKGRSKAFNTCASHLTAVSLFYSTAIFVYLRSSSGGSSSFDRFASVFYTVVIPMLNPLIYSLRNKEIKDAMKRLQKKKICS
Summary of the method: as §1

[11] = target: UniProt E9QAT7
Summary of the method: as §1

[12] = target: UniProt L7N0P5
Summary of the method: as §1

[13] = target: T11, UniProt K7N609
T11 sequence (whole entry): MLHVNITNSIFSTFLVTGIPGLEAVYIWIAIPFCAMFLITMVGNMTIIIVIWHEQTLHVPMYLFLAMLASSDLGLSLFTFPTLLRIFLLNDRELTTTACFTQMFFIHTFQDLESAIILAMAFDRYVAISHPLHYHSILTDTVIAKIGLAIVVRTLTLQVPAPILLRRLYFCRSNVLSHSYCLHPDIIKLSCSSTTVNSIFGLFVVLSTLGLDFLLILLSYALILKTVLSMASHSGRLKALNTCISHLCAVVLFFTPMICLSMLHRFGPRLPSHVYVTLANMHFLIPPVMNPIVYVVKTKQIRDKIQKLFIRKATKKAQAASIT
Summary of the method: as §1

[14] = target: T12, UniProt Q7TQV4
T12 sequence (whole entry): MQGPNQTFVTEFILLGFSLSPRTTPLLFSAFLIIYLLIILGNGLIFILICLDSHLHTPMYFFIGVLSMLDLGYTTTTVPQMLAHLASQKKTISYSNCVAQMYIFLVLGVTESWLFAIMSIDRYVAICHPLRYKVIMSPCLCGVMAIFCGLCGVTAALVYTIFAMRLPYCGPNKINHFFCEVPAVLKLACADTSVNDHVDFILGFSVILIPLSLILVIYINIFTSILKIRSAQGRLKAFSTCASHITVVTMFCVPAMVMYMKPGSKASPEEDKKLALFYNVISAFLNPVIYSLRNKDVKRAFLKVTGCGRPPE
Summary of the method: as §1

[15] = target: T13, UniProt Q7TR71
T13 sequence (whole entry): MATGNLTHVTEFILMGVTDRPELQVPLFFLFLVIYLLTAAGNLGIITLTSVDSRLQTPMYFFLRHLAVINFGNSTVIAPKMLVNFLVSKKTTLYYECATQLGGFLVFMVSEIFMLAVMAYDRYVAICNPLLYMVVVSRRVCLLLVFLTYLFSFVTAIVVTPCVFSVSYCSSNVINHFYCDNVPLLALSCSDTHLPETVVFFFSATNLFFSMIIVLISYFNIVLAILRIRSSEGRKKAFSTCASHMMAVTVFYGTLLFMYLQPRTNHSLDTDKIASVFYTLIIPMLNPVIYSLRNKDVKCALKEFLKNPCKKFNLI
Summary of the method: as §1

[16] = target: T14, UniProt Q7TRA3
T14 sequence (whole entry): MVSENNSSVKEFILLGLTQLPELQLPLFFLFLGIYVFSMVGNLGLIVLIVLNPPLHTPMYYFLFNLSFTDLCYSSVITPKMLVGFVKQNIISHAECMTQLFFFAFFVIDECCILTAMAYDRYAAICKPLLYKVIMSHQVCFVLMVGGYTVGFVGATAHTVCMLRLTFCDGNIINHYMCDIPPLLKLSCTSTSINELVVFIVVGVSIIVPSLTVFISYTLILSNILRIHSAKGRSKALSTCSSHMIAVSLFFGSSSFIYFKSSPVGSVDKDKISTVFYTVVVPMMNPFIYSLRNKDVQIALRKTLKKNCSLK
Summary of the method: as §1

Measured: odorant receptor agonist call

CC(=O)OC1CC2CCC1(C)C2(C)C (stereo not drawn)
inactive: [1] | [2] | [3] | [4] | [5] | [6] | [7]

CCCCCOC(C)=O
inactive: [1] | [2] | [3] | [4] | [5] | [6] | [7]

CC(C)=CCCC(C)=CC=O
inactive: [1] | [2] | [3] | [4] | [5] | [6] | [7] | [8]
active: [9]

O=C1CCCCCCCCCCCC(=O)OCCO1
active: [10]

C=CCc1ccc(OC)c(OC)c1
inactive: [1] | [2] | [4] | [5] | [6] | [7]
active: [11] | [12] | [3]

CCCCCCCCCC=O
inactive: [1] | [13] | [2] | [3] | [4] | [5] | [6] | [14] | [15] | [7] | [16]

CCCCCCCCCCC=O
inactive: [2]

CCCCCC(C)=O
inactive: [1] | [13] | [2] | [3] | [4] | [5] | [6] | [14] | [15] | [7] | [16]

CC(C)C=O
inactive: [1] | [2] | [3] | [4] | [5] | [6] | [7]
